Measured values from patent US4789478A, “Conversion of inorganic ions to metal sulfides by microorganisms” (priority 1987, dated 1988).
Where two headings read alike, the source gives them in different places.

System: Citrobacter freundii and Desulfomonas
Details: 32° C., aerobic, mean ± SD, 3 experiments

Compound: [Cl][Hg][Cl] [HgCl2, mercuric chloride]
- % recovery in the filtrate (incubation time 0 h): 90 ± 12%
- % recovery in the filtrate (incubation time 6 h): 50%
- % recovery in the filtrate (incubation time 12 h): 15 ± 6%
- % recovery in the filtrate (incubation time 24 h): 6 ± 1%
- % recovery in the filtrate (incubation time 48 h): 5 ± 3%
